No constants are given. Whether binding was seen depends on the method and setting. Some entries that bind do so weakly or less than the wild type. Sequences can lack the tags named with a protein.
Biological target: T1, full-length CrSAS-6 (HisCrSAS-6_FL) (Chlamydomonas reinhardtii) (UniProt A9CQL4)
T1 sequence: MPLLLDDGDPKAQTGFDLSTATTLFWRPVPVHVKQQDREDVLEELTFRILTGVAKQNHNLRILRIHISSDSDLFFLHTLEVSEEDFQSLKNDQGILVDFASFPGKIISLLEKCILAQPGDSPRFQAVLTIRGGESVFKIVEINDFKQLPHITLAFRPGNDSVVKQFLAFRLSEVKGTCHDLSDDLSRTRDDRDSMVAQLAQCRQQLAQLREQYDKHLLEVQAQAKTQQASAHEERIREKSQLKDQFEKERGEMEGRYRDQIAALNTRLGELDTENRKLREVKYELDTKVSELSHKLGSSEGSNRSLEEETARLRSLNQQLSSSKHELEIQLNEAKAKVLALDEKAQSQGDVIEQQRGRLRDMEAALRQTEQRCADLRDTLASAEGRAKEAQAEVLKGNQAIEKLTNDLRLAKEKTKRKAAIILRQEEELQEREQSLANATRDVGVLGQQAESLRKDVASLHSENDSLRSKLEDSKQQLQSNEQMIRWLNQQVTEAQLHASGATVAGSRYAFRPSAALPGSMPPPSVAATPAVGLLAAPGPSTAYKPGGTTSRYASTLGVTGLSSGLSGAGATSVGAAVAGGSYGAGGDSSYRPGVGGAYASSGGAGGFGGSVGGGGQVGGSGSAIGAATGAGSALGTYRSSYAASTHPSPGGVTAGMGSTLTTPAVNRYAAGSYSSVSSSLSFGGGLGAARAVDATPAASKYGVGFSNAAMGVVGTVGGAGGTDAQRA
Experiment: cryo-EM and cryo-electron tomography of assemblies formed in a cell-free assay; CrSAS-6_FL (10 uM) and Bld10p_C (78 uM) mixed, incubated 4 h at 4 °C in 20 mM Tris pH 7.5, 150 mM NaCl, then dialysed against 10 mM K-PIPES pH 7.2 (final ~0.5 uM and ~4 uM); both purified

binding: binds
B1: Bld10p_C (residues 1061-1641 of Bld10p) (domain or fragment, UniProt A8ID55 1061-1640)
chain: SAEQLLRAKEAEAEDLRRVYEALAAEHRRLQGGVGALEREGAMREAALQAKAAEVSSLAESQRAAQATINQYVMDLQAFERQVDSLSRQLSQAEADGEELVRQREALLEEIRAAQQVRLGLERHREELQRQVASLDSQVAIGRARLEDSNSEAASLNQRLAMERSRVAELEGLLAGMRAREFRSDFASDRAGGQLAVMVDRNRALEEQVASLQHQVGALQASREAQDRELSRLRGEALALAASTAASLEGRTAAAGGAAAGAAKDQAAALDRLTSERDAAQDEAARLRGALAAAEAAAASASTAAAVSIPAAGSGSEAAAVLRVRCSELERRNTELMQELRTLQDTCRQQESLLSAAQNELSALQAEHRRLVELVARLDQDKAAAAAEAAAARQQVATATRRVATAEQEAAAGAARLQSQLRDEQGRRRQAERDFLELLSSIEGAGGEAAAAAVAAAHGEGAAELASRRLRELQTQVDALEAEKAGLEEATQRTRATLGAMSGQMAAIQAEYDATNTALAGLAGAMAAGAQGQGQVQGPAGTAPAAAAGAPGPQPGQAQAGGFGGAHGGGSISLSGGPRR
